Assay results reported in PubChem BioAssay AID504834 (National Center for Advancing Translational Sciences (NCATS), 2011).
The campaign covered roughly 320,000 compounds. About 22,000 (6.9%) were called active. The inconclusive results got no clear call from the source; some entries with a clear call stand among them for comparison. Calls come from the whole dose curve; as a rule, active = well fitted inhibition curve with a large enough effect; inconclusive = small, poorly fitted or top-dose-only effect, or another doubt; inactive = no such curve, though single readings can be large or run the other way. Where the call is inconclusive, the potency comes from a doubtful curve fit.
% is set by controls: 0 for no effect and ±100 for the full control effect; potency is the fitted concentration of half-maximal effect.

Assay: Primary qHTS for delayed death inhibitors of the malarial parasite plastid, 96 hour incubation
Settings: P. falciparum luciferase reporter growth; series mostly up to 28.7 µM; activity change, negative = inhibition: at the top concentration
How it was run: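 Infected RBCs, 2% Hct / 0.05% parasitemia final; luciferase-reporter P. falciparum; cpd 96 h, 37 C, 5% CO2; luciferase detection reagent; luminescence.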
In the case of `CC(=O)Nc1ccc(C2(O)COc3ccccc3O2)cc1` (stereo not drawn), the Potency is reported as inconclusive: 11.7 µM [inhibitor, single point]. In the case of `CCN(CC)C(C)C(=O)c1ccccc1` (stereo not drawn), the “activity change, negative = inhibition” value is reported as inactive: -1.07%. For `Nc1ccc(C(=O)N2CCN(S(=O)(=O)/C=C/c3ccccc3)CC2)cc1[N+](=O)[O-]`, the Potency was inconclusive: 13.1 µM [inhibitor, single point]. For `Cn1nc(C(=O)N2CCN(S(=O)(=O)c3ccc(Cl)cc3)CC2)c2ccccc2c1=O`, the Potency was inconclusive: 4.15 µM [inhibitor, single point]. In the case of `COCCC(=O)NC1CCCc2c1cnn2-c1cccc(C)c1C` (stereo not drawn), the “activity change, negative = inhibition” value is reported as inactive: 0%. In the case of `N/C(=N\S(=O)(=O)c1cc(C(F)(F)F)cc(C(F)(F)F)c1)c1ccc(Cl)cc1`, the Potency is reported as inconclusive: 18.5 µM [inhibitor, single point]. In the case of `CCOc1ccc(CNC2CCCCCCC2)cc1OC`, the Potency is reported as inconclusive: 13.1 µM [inhibitor, single point]. For `COc1ccc(OC)c(CN2CCCC(C(=O)N3CCCCC3)C2)c1` (stereo not drawn), the Potency was inconclusive: 7.38 µM [inhibitor, partial curve, poor fit]. With `CCCC(=O)Nc1ncnc2c1ncn2[C@@H]1O[C@@H]2COP(=O)(O)O[C@H]2[C@H]1OC(=O)CCC` the Potency was inconclusive: 10.4 µM [inhibitor, single point]. For `O=C(N/N=C/c1ccc(O)cc1)c1cc[n+](Cc2ccccc2)cc1`, the Potency was inconclusive: 11.7 µM [inhibitor, single point]. For `CCOC(=O)/C(C(=O)Nc1ccc(Br)cc1)=C1/NC(C)(C)Cc2ccccc21`, the Potency was inconclusive: 18.5 µM [inhibitor, single point]. For `Cc1cc(OCC(=O)NCC2CCC(C(=O)O)CC2)c2c3c(c(=O)oc2c1)CCC3` (stereo not drawn), the Potency was inconclusive: 10.4 µM [inhibitor, single point]. With `CC(C)(CNC(=O)CO/N=C1/C=C2CCC3C(C(O)C[C@@]4(C)C3CC[C@]4(O)C(=O)CO)[C@@]2(C)CC1)C(O)C(=O)O` (stereo partly drawn) the Potency was inconclusive: 13.1 µM [inhibitor, single point]. For `CCOc1cc(C)c(S(=O)(=O)Nc2ccc(F)cc2)cc1C`, the Potency was inconclusive: 16.5 µM [inhibitor, single point]. With `CN(C)S(=O)(=O)c1cccc(NC(=O)c2n[nH]c(=O)c3ccccc23)c1` the Potency was inconclusive: 13.1 µM [inhibitor, single point]. For `Cc1ccc(CN2CCN(Cc3cn[nH]c3C3CCCCC3)CC2CCO)cc1` (stereo not drawn), the Potency was inconclusive: 0.0738 µM [inhibitor, full curve, poor fit]. For `O=C(CCNS(=O)(=O)c1ccccc1)N1CCN(C(c2ccccc2)c2ccccc2)CC1`, the Potency was active: 5.86 µM. For `CCCCn1c(N)c(N(CCOC)C(=O)Cn2c(=O)cnc3ccccc32)c(=O)[nH]c1=O`, the “activity change, negative = inhibition” value was inactive: -22.8%. In the case of `O=C(CCCCCn1c(SCc2ccncc2)nc2ccccc2c1=O)NCc1ccco1`, the “activity change, negative = inhibition” value is reported as inactive: 21%. In the case of `Cc1[nH]nc(SCC(=O)Nc2cccc(O)c2)c1[N+](=O)[O-]`, the Potency is reported as inconclusive: 1.65 µM [inhibitor, full curve, poor fit]. For `COc1ccc(-n2c(SC)nnc2-c2c[nH]c3ccccc23)cc1`, the Potency was inconclusive: 18.5 µM [inhibitor, single point]. With `COc1cc(/C=C2\C(=O)N(C)C(=S)N2C)ccc1O` the “activity change, negative = inhibition” value was inactive: 31.5%. With `COc1ccc(C(C#N)c2ccc(=O)[nH]n2)cc1` (stereo not drawn) the “activity change, negative = inhibition” value was inactive: 22.6%. For `O=C(CSc1ccccc1)NCCc1ccccc1`, the Potency was inconclusive: 10.4 µM [inhibitor, single point]. With `Cc1ccc2oc(C(=O)N3CCCCCC3)c(C)c2c1` the Potency was active: 13.1 µM. With `O=C(COc1ccc(S(=O)(=O)N2CCOCC2)cc1Cl)NCC1CCCO1` (stereo not drawn) the Potency was inconclusive: 4.65 µM [inhibitor, partial curve]. With `CCCCn1c(SCC(=O)N2CCCC2=O)nc2cc(S(N)(=O)=O)ccc21` the “activity change, negative = inhibition” value was inactive: -21.5%. For `COc1cccc(CN2CCC(CO)(CC3CCCCO3)CC2)c1` (stereo not drawn), the Potency was active: 9.28 µM. With `O=C(CNS(=O)(=O)c1ccccc1F)OCC(=O)c1c[nH]c2ccccc12` the “activity change, negative = inhibition” value was inactive: 34.1%. With `CCN1C(=O)C(CC(=O)Nc2ccc(OC)cc2)N(CCCN2CCN(c3ccc(OC)cc3)CC2)C1=S` (stereo not drawn) the Potency was inconclusive: 2.62 µM [inhibitor, single point]. For `CCOc1ccc(Br)cc1C(=O)N/N=C/c1ccccn1`, the Potency was inconclusive: 13.1 µM [inhibitor, single point]. For `CC(=O)C1=C(C)N(Cc2ccccc2)C(=O)N[C@H]1CCc1ccccc1`, the Potency was inconclusive: 18.5 µM [inhibitor, single point]. In the case of `Cn1c(=O)[nH]c(=O)c2c1nc(Br)n2CC(O)COc1ccc(Cl)cc1` (stereo not drawn), the activity change, negative = inhibition is reported as inactive: -41.1% [at 1.15 µM]. With `O=c1oc2ccccc2cc1-c1csc(Nc2nc3c(F)cccc3s2)n1` the Potency was inconclusive: 10.4 µM [inhibitor, single point]. In the case of `O=C(CN1C(=O)NC(Cc2ccccc2)C1=O)Nc1ccccc1` (stereo not drawn), the “activity change, negative = inhibition” value is reported as inactive: 29.2%. In the case of `COc1cccc(C(=O)Nc2ccccc2N2CCOCC2)c1`, the Potency is reported as inconclusive: 18.5 µM [inhibitor, single point]. With `CC(=O)Nc1ccc(NC(=O)C(C)n2nc([N+](=O)[O-])c(Br)c2C)cc1` (stereo not drawn) the Potency was inconclusive: 8.28 µM [inhibitor, partial curve]. In the case of `Cc1cccc2c(N=Nc3ccc(S(=O)(=O)Nc4cccc(Cl)c4)cc3[N+](=O)[O-])c(O)[nH]c12`, the Potency is reported as inconclusive: 2.33 µM [inhibitor, full curve]. For `O=C(c1ccc2c(c1)OCO2)C1CCCN(C2CCN(CCc3ccccc3)CC2)C1` (stereo not drawn), the “activity change, negative = inhibition” value was inactive: 3.06%. For `CSc1cccc(N2CC(C(=O)Nc3cccc(S(=O)(=O)N4CCCC4)c3)CC2=O)c1` (stereo not drawn), the Potency was inconclusive: 18.5 µM [inhibitor, single point]. For `Cc1ccc(NC2CCCN(C(=O)c3ccc(-n4ccnc4)cc3)C2)cc1C` (stereo not drawn), the Potency was inconclusive: 13.1 µM [inhibitor, partial curve]. With `C=CCn1c(SCC(=O)Nc2ccc3c(c2)OCCO3)nnc1-c1ccco1` the Potency was inconclusive: 11.7 µM [inhibitor, single point]. For `O=C(Nc1ccc2c(c1)OCO2)c1noc2c1CCCCC2`, the “activity change, negative = inhibition” value was inactive: 33.2%.
